Assay: Color tone of printed matter
Settings: ink containing the dye, printed on PB paper

Row | Compound | Color Tone L* | Color Tone a* | Color Tone b*
1 | C.I. Direct Yellow 132 [Dye e] | 87 | −4 | 73
2 | C.I. Acid Yellow 17 [Dye c] | 88 | −15 | 74
3 | C.I. Direct Yellow 86 [Dye d] | 89 | 5 | 76
4 | CCCCCCN(CCCCCC)S(=O)(=O)c1ccc(N=NC2C(=O)N(c3cc(Cl)c(S(=O)(=O)N(CCCCCC)CCCCCC)cc3Cl)N=C2C)cc1 (stereo not drawn) [Oil-Soluble Dye IC] | 85 | −19 | 70
5 | CCCCN(CCCC)S(=O)(=O)c1cccc(N=Nc2ccc(NC(=O)Nc3ccc(N=Nc4cccc(S(=O)(=O)N(CCCC)CCCC)c4)cc3OC)c(OC)c2)c1 [Oil-Soluble Dye ID] | 85 | −3 | 65
6 | C.I. Acid Yellow 23 [Dye b] | 86 | −0.4 | 89
7 | C.I. Acid Red 289 [Dye a] | 59 | 69 | −11
8 | C.I. Solvent Red 49 [Dye l] | 50 | 65 | −22
9 | CCCCN(CCCC)C(=O)C1=NN(c2ccc(S(=O)(=O)N(CCCC)CCCC)cc2)C(=O)C1N=Nc1ccc(S(=O)(=O)N(CCCC)CCCC)cc1 (stereo not drawn) [Oil-Soluble Dye IB] | 84 | −4 | 84
